Source: article PMC5762833
Results are given in words; binding and its absence hold for the method and conditions named. Binding seen in cells or lysates may run through a third protein. These calls come from enrichment with a bait or labelling near it, and not all partners need be listed. Blank lines part the entries; values can stand above or below the binder they belong to.

By UniProt entry, the sequences of proteins in these tests, tags left out. Where a name states a change or a piece, a line headed by the entry shows the natural chain unless it says otherwise.
UniProt P24557: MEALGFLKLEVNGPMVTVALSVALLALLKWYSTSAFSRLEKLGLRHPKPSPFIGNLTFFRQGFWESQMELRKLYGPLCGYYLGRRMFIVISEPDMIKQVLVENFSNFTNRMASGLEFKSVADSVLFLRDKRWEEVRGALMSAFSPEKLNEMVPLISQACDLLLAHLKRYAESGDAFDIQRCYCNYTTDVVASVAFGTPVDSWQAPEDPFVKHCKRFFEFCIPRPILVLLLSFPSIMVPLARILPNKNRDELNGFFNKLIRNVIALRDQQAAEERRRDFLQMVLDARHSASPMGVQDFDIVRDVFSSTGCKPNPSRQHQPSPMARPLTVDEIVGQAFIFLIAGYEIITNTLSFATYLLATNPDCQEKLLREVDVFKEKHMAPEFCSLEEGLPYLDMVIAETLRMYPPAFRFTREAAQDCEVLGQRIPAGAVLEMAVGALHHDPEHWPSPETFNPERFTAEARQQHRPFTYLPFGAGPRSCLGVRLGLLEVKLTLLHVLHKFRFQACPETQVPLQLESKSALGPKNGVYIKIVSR

Biological target: Human thromboxane synthase (TBXAS1) (human) (UniProt P24557)
Assay: affinity purification with mass spectrometry; direct molecular fishing: TBXAS1 covalently immobilised on CNBr-Sepharose 4B in a 200 µL microcolumn; human liver tissue lysate passed in HBS-EP+ (10 mM HEPES pH 7.4, 150 mM NaCl, 3 mM EDTA, 0.05% Tween 20) at 15°C; elution with 4% HCOOH (pH 2.5); LC-MS/MS; control column of empty inactivated sorbent; only the target purified

- binding: binds
B1: Ankyrin repeat and MYND domain-containing protein 1 (protein, UniProt Q9P2S6 1-941)
chain: MYQGEFGLNMKLGYGKFSWPTGESYHGQFYRDHCHGLGTYMWPDGSSFTGTFYLSHREGYGTMYMKTRLFQGLYKADQRFGPGVETYPDGSQDVGLWFREQLIKLCTQIPSGFSLLRYPEFSSFITHSPARISLSEEEKTEWGLQEGQDPFFYDYKRFLLNDNLTLPPEMYVYSTNSDHLPMTSSFRKELDARIFLNEIPPFVEDGEPWFIINETPLLVKIQKQTYKFRNKPAHTSWNMGAILEGKRSGFAPCGPKEQLSMEMILKAEEGNHEWICRILKDNFASADVADAKGYTVLAAAATHCHNDIVNLLLDCGADVNKCSDEGLTALSMCFLLHYPAQSFKPNVAERTIPEPQEPPKFPVVPILSSSFMDTNLESLYYEVNVPSQGSYELRPPPAPLLLPRVSGSHEGGHFQDTGQCGGSIDHRSSSLKGDSPLVKGSLGHVESGLEDVLGNTDRGSLCSAETKFESNVCVCDFSIELSQAMLERSAQSHSLLKMASPSPCTSSFDKGTMRRMALSMIERRKRWRTIKLLLRRGADPNLCCVPMQVLFLAVKAGDVDGVRLLLEHGARTDICFPPQLSTLTPLHIAAALPGEEGVQIVELLLHAITDVDAKASDEDDTYKPGKLDLLPSSLKLSNEPGPPQAYYSTDTALPEEGGRTALHMACEREDDNKCARDIVRLLLSHGANPNLLWSGHSPLSLSIASGNELVVKELLTQGADPNLPLTKGLGSALCVACDLTYEHQRNMDSKLALIDRLISHGADILKPVMLRQGEKEAVGTAVDYGYFRFFQDRRIARCPFHTLMPAERETFLARKRLLEYMGLQLRQAVFAKESQWDPTWLYLCKRAELIPSHRMKKKGPSLPRGLDVKEQGQIPFFKFCYQCGRSIGVRLLPCPRCYGILTCSKYCKTKAWTEFHKKDCGDLVAIVTQLEQVSRRREEFQ

- binding: binds
B2: BBSome-interacting protein 1 (protein, UniProt A8MTZ0 1-92)
chain: MLKAAAKRPELSGKNTISNNSDMAEVKSMFREVLPKQGPLFVEDIMTMVLCKPKLLPLKSLTLEKLEKMHQAAQNTIRQQEMAEKDQRQITH
